Record: PubChem BioAssay AID743121 (NCATS, 2013)
Test: 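Knock-downs that sensitise breast cancer cells to camptothecin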 (primary screen). Cell system: MDA-MB-231 cells, a human breast cancer line. Knock-down reagent: single siRNA against human genes, 20 nM siRNA (0.8 pmol per well). Timing: 120 h (drug added 48 h after transfection, read 72 h later). Conditions: camptothecin 20 nM (about EC30) for 72 h; vehicle 0.1% DMSO in parallel plates. Measured: 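Cell viability by ATP luminescence (CellTiter-Glo) as % of non-targeting siRNA wells, and the log2 ratio of viability without drug over viability with camptothecin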. Direction: log2 vehicle/camptothecin viability: higher = stronger sensitisation to camptothecin; viability with camptothecin and viability without drug: higher = more viable cells. Call rule: 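Each gene scored by redundant siRNA activity (RSA) over its individual siRNA ratios; a gene is called active at p < 0.001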.
In all, the deposit lists about 26,000 reagents; below is an unselected part. 167 of all reagents (0.63%) count as active. 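Calls are per gene from RSA p-values that are not deposited; an individual active-marked siRNA can sensitise only weakly.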 Reagents against one gene are numbered here. Reagent sequences are not shown.

The opening 2 entries, to show the layout:
target	reagent	log2 vehicle/camptothecin viability	viability with camptothecin (% of control)	viability without drug (% of control)	outcome
PPP2R5A	1	-0.415	101	75.9	inactive
PPP2R5A	2	-0.157	94.8	85	inactive

The listing, from the first entry:
target	reagent	log2 vehicle/camptothecin viability	viability with camptothecin (% of control)	viability without drug (% of control)	outcome
PPP2R5A	1	-0.415	101	75.9	inactive
PPP2R5A	2	-0.157	94.8	85	inactive
PPP2R5A	3	-0.0592	103	99	inactive
PPP2R5A	4	-0.328	73.3	58.4	inactive
PPP1R2	1	-0.219	69.1	59.3	inactive
PPP1R2	2	-0.0711	87.8	83.5	inactive
PPP1R2	3	-0.37	86.3	66.8	inactive
PPP1R2	4	-0.314	109	87.6	inactive
MGST2	1	-0.566	76.1	51.4	inactive
MGST2	2	-0.147	98.3	88.8	inactive
MGST2	3	0.0469	86.9	89.7	inactive
MGST2	4	-0.212	90.6	78.2	inactive
DTNBP1	1	0.00555	75.5	75.8	inactive
DTNBP1	2	-0.562	36.5	24.7	inactive
DTNBP1	3	-0.443	69.4	51	inactive
DTNBP1	4	-0.0892	102	96.3	inactive
PTOV1	1	0.301	75.2	92.7	inactive
PTOV1	2	-0.412	36.8	27.7	inactive
PTOV1	3	-0.148	94.8	85.6	inactive
PTOV1	4	-0.228	33.3	28.5	inactive
DDR1	1	-0.0832	64.7	61.1	inactive
DDR1	2	-0.704	83.7	51.4	inactive
DDR1	3	0.596	78.4	119	inactive
DDR1	4	1.09	31.6	67.4	inactive
CRCP	1	0.0596	111	115	inactive
CRCP	2	-0.103	85.9	80	inactive
CRCP	3	-0.119	76.2	70.2	inactive
FOXRED2	1	-0.511	84.7	59.4	inactive
FOXRED2	2	-0.142	83.2	75.4	inactive
FOXRED2	3	0.314	49.3	61.3	inactive
PFKFB1	1	-0.0369	60	58.5	inactive
PFKFB1	2	-0.0686	65.9	62.9	inactive
PFKFB1	3	0.0992	83.2	89.1	inactive
PFKFB1	4	-0.177	49	43.3	inactive
PTPN9	1	-0.0395	80.7	78.5	inactive
PTPN9	2	0.0946	102	109	inactive
PTPN9	3	-0.19	108	94.9	inactive
PTPN9	4	0.817	40.5	71.4	inactive
INHBB	1	-0.761	60.8	35.9	inactive
INHBB	2	-0.153	123	111	inactive
INHBB	3	-0.235	84.2	71.5	inactive
TOP3A	1	0.18	71.4	80.9	inactive
TOP3A	2	0.219	63.8	74.2	inactive
TOP3A	3	-0.277	87.2	72	inactive
PLCD1	1	0.174	62.9	70.9	inactive
PLCD1	2	-0.251	120	101	inactive
PLCD1	3	-0.38	80.4	61.8	inactive
PLCD1	4	-0.304	54.6	44.2	inactive
CDC14B	1	-0.0834	84.9	80.2	inactive
CDC14B	2	-0.0445	67.6	65.5	inactive
CDC14B	3	-0.235	86.8	73.8	inactive
CDC14B	4	-0.193	99.9	87.4	inactive
ATF2	1	0.231	60.6	71.1	inactive
ATF2	2	-0.104	108	100	inactive
ATF2	3	-0.0862	102	95.6	inactive
CCNL2	1	-0.574	69.3	46.5	inactive
CCNL2	2	0.111	96.8	105	inactive
CCNL2	3	-0.598	44.1	29.1	inactive
CCNL2	4	0.317	79.8	99.4	inactive
SLC24A2	1	-0.00374	89	88.8	inactive
SLC24A2	2	0.114	85.7	92.7	inactive
SLC24A2	3	0.0997	39.3	42.1	inactive
SLC24A2	4	-0.554	81.5	55.5	inactive
GPR107	1	-0.319	29.8	23.9	inactive
GPR107	2	-0.247	102	86.2	inactive
GPR107	3	-0.286	105	85.7	inactive
GPR107	4	-0.0691	103	97.8	inactive
CXCL14	1	0.0901	85.9	91.4	inactive
CXCL14	2	-0.0871	94.3	88.7	inactive
CXCL14	3	0.154	81.1	90.3	inactive
